Results published in publication PMC5735978.

Protein sequences, listed by entry. Tags and fused reporters are not part of them.
UniProt P63104: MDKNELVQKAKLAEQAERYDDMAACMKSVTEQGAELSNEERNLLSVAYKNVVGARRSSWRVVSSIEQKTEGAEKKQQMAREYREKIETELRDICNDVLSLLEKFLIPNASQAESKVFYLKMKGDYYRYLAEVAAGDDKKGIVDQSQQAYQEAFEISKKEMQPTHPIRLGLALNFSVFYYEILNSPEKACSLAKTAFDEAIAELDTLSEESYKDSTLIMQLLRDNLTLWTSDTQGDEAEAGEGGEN
UniProt P62258: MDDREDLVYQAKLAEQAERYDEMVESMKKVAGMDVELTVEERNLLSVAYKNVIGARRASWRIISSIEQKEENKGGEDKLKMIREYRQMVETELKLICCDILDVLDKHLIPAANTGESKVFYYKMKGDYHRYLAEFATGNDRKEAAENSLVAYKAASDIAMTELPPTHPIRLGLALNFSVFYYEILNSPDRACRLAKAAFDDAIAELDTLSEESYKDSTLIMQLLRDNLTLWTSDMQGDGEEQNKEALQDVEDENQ
UniProt P31946: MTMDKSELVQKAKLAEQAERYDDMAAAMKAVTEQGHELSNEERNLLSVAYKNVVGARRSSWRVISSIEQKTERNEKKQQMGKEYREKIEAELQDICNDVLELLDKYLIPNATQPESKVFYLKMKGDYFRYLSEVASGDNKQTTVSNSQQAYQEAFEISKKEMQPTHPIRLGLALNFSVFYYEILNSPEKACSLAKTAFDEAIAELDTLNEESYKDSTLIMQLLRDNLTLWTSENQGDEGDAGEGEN

Key:
Assay in all cases: affinity purification with mass spectrometry; 3xFlag-PAK6 variants immunoprecipitated from transfected HEK293T lysates with anti-Flag M2 agarose; SDS-PAGE, Coomassie staining; doublet around 25 kDa identified by LC-MS/MS
3xFlag-PAK6 S531N = 3xFlag-PAK6 S531N (UniProt Q9NQU5)
3xFlag-PAK6 K436M = biological target: T1, 3xFlag-PAK6 K436M (UniProt Q9NQU5)
T1 sequence: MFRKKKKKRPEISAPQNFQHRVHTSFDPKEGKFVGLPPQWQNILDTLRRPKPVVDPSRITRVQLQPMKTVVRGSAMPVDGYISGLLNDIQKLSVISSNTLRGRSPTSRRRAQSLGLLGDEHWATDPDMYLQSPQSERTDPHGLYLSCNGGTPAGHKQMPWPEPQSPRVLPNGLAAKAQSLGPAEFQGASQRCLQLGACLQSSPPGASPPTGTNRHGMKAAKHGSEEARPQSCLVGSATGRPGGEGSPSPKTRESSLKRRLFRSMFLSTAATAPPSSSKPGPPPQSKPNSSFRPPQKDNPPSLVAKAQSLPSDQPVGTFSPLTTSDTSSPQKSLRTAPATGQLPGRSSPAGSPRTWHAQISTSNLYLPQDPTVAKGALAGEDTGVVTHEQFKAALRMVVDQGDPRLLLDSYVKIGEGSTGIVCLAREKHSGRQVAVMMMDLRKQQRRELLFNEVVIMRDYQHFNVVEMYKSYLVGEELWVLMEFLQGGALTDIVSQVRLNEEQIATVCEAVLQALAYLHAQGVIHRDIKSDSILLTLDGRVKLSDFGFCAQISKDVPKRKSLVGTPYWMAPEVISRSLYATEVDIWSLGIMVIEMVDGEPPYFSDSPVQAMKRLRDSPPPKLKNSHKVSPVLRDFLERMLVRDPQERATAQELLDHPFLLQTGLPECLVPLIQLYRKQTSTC

3xFlag-PAK6 wild-type = 3xFlag-PAK6 wild-type (UniProt Q9NQU5)

Substance	binding (3xFlag-PAK6 S531N)	binding (3xFlag-PAK6 K436M)	binding (3xFlag-PAK6 wild-type)
14-3-3 zeta (endogenous, HEK293T) (from UniProt P63104 1-245)	binds	no binding	binds
14-3-3 epsilon (endogenous, HEK293T) (from UniProt P62258 1-255)	binds	no binding	binds
14-3-3 beta (endogenous, HEK293T) (from UniProt P31946 1-246)	binds	no binding	binds

No constants are given. Whether binding was seen depends on the method and setting. In cells and extracts the contact can be indirect. A yes stands for co-enrichment or nearness to the bait. Other partners may have been found. For part of these data: A no says only that the protein was not detected with the bait. For part of these data: Where a sequence is shown, tags or fusion partners need not be part of it.
